Data taken from patent US4390613A, “Diffusion transfer photographic system utilizing substituted phenylmercaptoazoles” (Polaroid Corporation, priority 1981, dated 1983).

Experiments:
[1] = Sensitometry of diffusion transfer film units with blocked compounds (Example XV); conditions: about 215 mgs./m.^2 in top coat layer
[2] = Sensitometry of diffusion transfer film units (Example VI); set-up: key to Rel. Speed B (symbol): *: blue relative speed too slow to measure; conditions: room temperature
[3] = Sensitometry of diffusion transfer film units, compound in photosensitive element (Example VII)
[4] = 0.05% in processing composition

## CC(=NO)c1ccc(-n2nnnc2SCCC#N)cc1 [XVII]
[1]; 24° C.
  Dmin B: 0.15
  Dmin G: 0.13
  Dmin R: 0.16
[1]; 35° C.
  Dmax R: 1.40
  Dmin B: 0.17
  Dmin G: 0.14
  Dmin R: 0.16

## CC(=NO)c1ccc(-n2nnnc2S)cc1 [Compound II]
[2]; [4]
  Dmax B: 2.06
  Dmax G: 2.27
  Dmax R: 1.81
  Dmin B: 0.19
  Dmin G: 0.22
  Dmin R: 0.23
  Rel. Speed B: 1.27
  Rel. Speed G: 1.33
  Rel. Speed R: 1.34
[2]; 0.05%
  blue Dmax vs control: increase in the blue Dmax
  blue Dmin vs control: without any increase in the blue Dmin
[3]; 1 mg/m^2 in layer 5, 75° F.
  Dmax B: 2.25
  Dmax G: 1.75
  Dmax R: 2.03
  Rel. Speed B: 1.33
  Rel. Speed G: 1.46
  Rel. Speed R: 1.52
[3]; 1 mg/m^2 in layer 5, 95° F.
  Δ Dmax B: -0.15
  Δ Dmax G: -0.19
  Δ Dmax R: -0.48
[3]; 2 mgs/m^2 in layer 5, 75° F.
  Dmax B: 2.24
  Dmax G: 1.70
  Dmax R: 2.09
  Rel. Speed B: 1.33
  Rel. Speed G: 1.46
  Rel. Speed R: 1.47
[3]; 2 mgs/m^2 in layer 5, 95° F.
  Δ Dmax B: -0.11
  Δ Dmax G: -0.09
  Δ Dmax R: -0.27
[3]; 3 mgs/m^2 in layer 5, 75° F.
  Dmax B: 2.28
  Dmax G: 1.78
  Dmax R: 2.14
  Rel. Speed B: 1.29
  Rel. Speed G: 1.39
  Rel. Speed R: 1.41
[3]; 3 mgs/m^2 in layer 5, 95° F.
  Δ Dmax B: -0.11
  Δ Dmax G: -0.06
  Δ Dmax R: -0.22

## Sc1nnnn1-c1ccccc1 [PMT, 1-phenyl-5-mercaptotetrazole, reference compound]
[2]; [4]
  Dmax B: 2.20
  Dmax G: 2.23
  Dmax R: 1.75
  Dmin B: 0.76
  Dmin G: 0.25
  Dmin R: 0.23
  Rel. Speed B (symbol): *
  Rel. Speed G: 1.03
  Rel. Speed R: 1.29
[2]; 0.05%
  blue Dmin vs control: large increase in the blue Dmin
  blue speed vs control: very large decrease in the blue speed
  restraint of development of blue sensitive emulsion: restrained development of the blue sensitive silver halide emulsion prematurely

## Oc1ccc(-n2nnnc2S)cc1 [Compound I, 1-(4-hydroxyphenyl)-5-mercaptotetrazole]
[2]; [4]
  Dmax B: 1.98
  Dmax G: 2.24
  Dmax R: 1.75
  Dmin B: 0.18
  Dmin G: 0.20
  Dmin R: 0.22
  Rel. Speed B: 1.44
  Rel. Speed G: 1.38
  Rel. Speed R: 1.39
[2]; 0.05%
  blue Dmax vs control: increase in the blue Dmax
  blue Dmin vs control: without any increase in the blue Dmin

## CC(=O)c1ccc(-n2nnnc2S)cc1 [XI]
[3]; 1 mg/m^2 in layer 5, 75° F.
  Dmax B: 2.23
  Dmax G: 1.71
  Dmax R: 2.01
  Rel. Speed B: 1.35
  Rel. Speed G: 1.48
  Rel. Speed R: 1.56
[3]; 1 mg/m^2 in layer 5, 95° F.
  Δ Dmax B: -0.14
  Δ Dmax G: -0.12
  Δ Dmax R: -0.37
[3]; 2 mgs/m^2 in layer 5, 75° F.
  Dmax B: 2.25
  Dmax G: 1.73
  Dmax R: 2.04
  Rel. Speed B: 1.37
  Rel. Speed G: 1.46
  Rel. Speed R: 1.58
[3]; 2 mgs/m^2 in layer 5, 95° F.
  Δ Dmax B: -0.11
  Δ Dmax G: -0.05
  Δ Dmax R: -0.27
[3]; 3 mgs/m^2 in layer 5, 75° F.
  Dmax B: 2.23
  Dmax G: 1.71
  Dmax R: 2.08
  Rel. Speed B: 1.39
  Rel. Speed G: 1.43
  Rel. Speed R: 1.57
[3]; 3 mgs/m^2 in layer 5, 95° F.
  Δ Dmax B: -0.05
  Δ Dmax G: +0.06
  Δ Dmax R: -0.19

## CC(=O)Oc1ccc(CSc2nnnn2-c2ccc(O)cc2)cc1 [XVIII]
[1]; 24° C.
  Dmin B: 0.23
  Dmin G: 0.15
  Dmin R: 0.14
[1]; 35° C.
  Dmin B: 0.25
  Dmin G: 0.15
  Dmin R: 0.14

## CS(=O)(=O)CCSc1nnnn1-c1ccc(S(N)(=O)=O)cc1 [XIII]
[1]; 24° C.
  Dmin B: 0.23
  Dmin G: 0.16
  Dmin R: 0.15
[1]; 35° C.
  Dmin B: 0.25
  Dmin G: 0.17
  Dmin R: 0.16

## CS(=O)(=O)CCSc1nnnn1-c1ccc(O)cc1 [XII]
[1]; 24° C.
  Dmax B: 1.40
  Dmax R: 1.60
  Dmin B: 0.24
  Dmin G: 0.17
  Dmin R: 0.18
[1]; 35° C.
  Dmin B: 0.24
  Dmin G: 0.17
  Dmin R: 0.16

## N#CCCSc1nnnn1-c1ccc(O)cc1 [XVI]
[1]; 24° C.
  Dmax R: 1.30
  Dmin B: 0.15
  Dmin G: 0.13
  Dmin R: 0.15
[1]; 35° C.
  Dmin B: 0.17
  Dmin G: 0.14
  Dmin R: 0.17

## CC(=O)CCSc1nnnn1-c1ccc(S(N)(=O)=O)cc1 [XV]
[1]; 24° C.
  Dmin B: 0.16
  Dmin G: 0.13
  Dmin R: 0.16
[1]; 35° C.
  Dmin B: 0.17
  Dmin G: 0.14
  Dmin R: 0.16

## CC(=O)CCSc1nnnn1-c1ccc(O)cc1 [XIV]
[1]; 24° C.
  Dmin B: 0.26
  Dmin G: 0.17
  Dmin R: 0.16
[1]; 35° C.
  Dmin B: 0.26
  Dmin G: 0.17
  Dmin R: 0.16
